# Measured values reported in the supplement of paper PMC5949888.
# Most values lie at the floor of the assay. Slopes are relative: functional sequences can read slightly below zero.
# Test system: Saccharomyces cerevisiae PS128 hsf1 delta, HSF1(1-493) fusion
# Assay: growth estimate (transactivation domain function in HSF1 fusion, heat-shock survival) (a.u. (slope of normalised read count over time)); higher = stronger growth at 37°C, i.e. more transactivation activity
# Details: library: random library
row,Substance,growth estimate
1,YGTKGLRAMCHFLFFRSSDG,< -0.25
2,YGV,< -0.25
3,YGVGGLPFSRPSLNTAAP,< -0.25
4,YGVIIRRWELITCKFVSSRG,< -0.25
5,YGWANSYMVP,< -0.25
6,YGYGV,< -0.25
7,YHLTLGDYMILQTLGQFISL,< -0.25
8,YHPAGPYIRTRLTYRSCQFI,< -0.25
9,YHRSVLC,-0.246
10,YHTIPGDPSKFQLTP,< -0.25
11,YHVNVGMNLDGQKGENVASW,-0.199
12,YHVRVAERATFEPH,< -0.25
13,YIARTLGSGVTTYCDPH,< -0.25
14,YIAYFDSTTTTPRGFQCPA,< -0.25
15,YICSSRAMTLTCVVVYVRGR,< -0.25
16,YIEFYLSR,< -0.25
17,YIFGVE,< -0.25
18,YIGPLWVASYGTPKPCVLGR,< -0.25
19,YIHYI,< -0.25
20,YIITVSISQVRDSQRGHSNS,< -0.25
21,YILVASVA,< -0.25
22,YIN,< -0.25
23,YIQ,< -0.25
24,YIR,< -0.25
25,YIRERRGGSLPRWTNTTSRF,< -0.25

row,Substance,growth estimate
1,YIRPPAIRWITGLYYLLTGP,< -0.25
2,YIRSKSVNAYRRMRTLMSIL,< -0.25
3,YISRFHVDSK,< -0.25
4,YISRPAMVRGIRVRNITFRY,< -0.25
5,YKGGCAEVGGLFTWVLLDVP,< -0.25
6,YKGRAEGAK,< -0.25
7,YKPGSGKPNMFASMVDAISL,< -0.25
8,YKPQEGSRIGGWWLIGYRDA,< -0.25
9,YKRARYPRVSPSVFTAGRCE,< -0.25
10,YKTSVL,< -0.25
11,YKTVIGKVKWLSFFKANVIQ,< -0.25
12,YLASPHVTGSG,< -0.25
13,YLDNSCTQGFGFRPGWSVLL,< -0.25
14,YLEYSLLQREFPRR,< -0.25
15,YLGAQLLRV,< -0.25
16,YLGFIDPLAQANLKFPFATL,< -0.25
17,YLGG,< -0.25
18,YLGKGSR,< -0.25
19,YLGVTTGVKTVFGLFKARTS,< -0.25
20,YLPPGRAHAQPYDQRCICGP,< -0.25
21,YLQMH,< -0.25
22,YLRFLGEERSLIIKALRYPV,< -0.25
23,YLSLVEVVRWVLIICTLGAT,< -0.25
24,YLSSWQYDTPCGMPYRGS,< -0.25
25,YLVARWRFSGSGVVGILT,< -0.25

# 4 entries from above, set out differently:
row	Substance	growth estimate
12	YLASPHVTGSG	< -0.25
13	YLDNSCTQGFGFRPGWSVLL	< -0.25
14	YLEYSLLQREFPRR	< -0.25
15	YLGAQLLRV	< -0.25

# Remaining list, next part

row,Substance,growth estimate
1,YLVKVSRIAATVGRPRGGSP,< -0.25
2,YLVTVDRYKQKRYVRYPTVE,< -0.25
3,YMFTIGA,< -0.25
4,YMGRRPWASGNVSPI,< -0.25
5,YMHHRNSQGTNLTDWHLFWP,< -0.25
6,YMQDRWEVRRMAGLPATNLI,< -0.25
7,YNCAIRSFLAW,-0.246
8,YNCTCINVRLRLRELITEDP,< -0.25
9,YNDNQLSR,< -0.25
10,YNEGRNLDGGSICDCSILRP,< -0.25
11,YNGGEGERCIGFIVRTLVSP,< -0.25
12,YNGLIYKVAQRHFFRFVSVV,< -0.25
13,YNGQVGQHPTDVPSGPEGPT,< -0.25
14,YNLGP,< -0.25
15,YNLT,< -0.25
16,YNLTGWALSQEGGYSASNAD,< -0.25
17,YNSHCVLPQASAAGFQYAKV,< -0.25
18,YNSPSIPQVRVGARILRS,< -0.25
19,YNTRQLCT,< -0.25
20,YNVRWIT,< -0.25
21,YNYR,< -0.25
22,YPAGFDSAHRKELTSFAALA,< -0.25
23,YPAVDLSHMQQAIR,< -0.25
24,YPGISSRPGASATDGILSGL,< -0.25
25,YPGNGYVPVWYRAPRANKTL,< -0.25

# Reprinted at random: 6 entries already listed
row,Substance,growth estimate
6,YMQDRWEVRRMAGLPATNLI,< -0.25
14,YNLGP,< -0.25
22,YPAGFDSAHRKELTSFAALA,< -0.25
24,YPGISSRPGASATDGILSGL,< -0.25
16,YNLTGWALSQEGGYSASNAD,< -0.25
5,YMHHRNSQGTNLTDWHLFWP,< -0.25

# Further records.

row,Substance,growth estimate
1,YPGSLLRGAHTGSPRAPVHE,< -0.25
2,YPIFL,-0.25
3,YPLASNTVMQAVDQQRTLQR,< -0.25
4,YPMETGKSIDRP,< -0.25
5,YPRRHAVLPTGSVFQSWDVW,< -0.25
6,YPSIRFYGRADEKNIGLVKP,< -0.25
7,YPSRKRFQLDLACTECAPPA,< -0.25
8,YQEDRRPGRRADEP,-0.245
9,YQGVEP,< -0.25
10,YQKRDLLIPVRF,-0.235
11,YQNQRAEWIVRLACHASIRA,< -0.25
12,YQNTNREENRA,< -0.25
13,YQNVVYHGVLSETWLPPQGV,< -0.25
14,YQQDYIRA,< -0.25
15,YQRFE,< -0.25
16,YQRMNHLR,< -0.25
17,YQVGCQKYVTYLWVGSTSGG,< -0.25
18,YQYGLVQFH,< -0.25
19,YQYRYR,-0.245
20,YRAMLR,< -0.25
21,YRAPEDAASRAKATFRTYRL,< -0.25
22,YRCHIVVYCGQFFTMHPGSH,< -0.25
23,YRCRPEASKSGNQYVDGVYL,< -0.25
24,YRCYINRGRIQNRCG,< -0.25
25,YREGELHDQACYRYQVWTIT,< -0.25

row,Substance,growth estimate
1,YREIM,< -0.25
2,YRESGGDSMNKAPAWSSLGS,< -0.25
3,YRGAHYVRHKPHCFTKFRLG,< -0.25
4,YRGPASQDPASQSSR,< -0.25
5,YRGSSDGKMGEIQLIYTKVS,< -0.25
6,YRIILRNRGIL,< -0.25
7,YRLSNRVEFLGGVLHLPD,-0.219
8,YRQSLRVVVYLSCSLTLPQI,< -0.25
9,YRRGRGPAENRQIAPEQVGF,< -0.25
10,YRRTGHGLGPCGIGCDRL,< -0.25
11,YRRVCST,< -0.25
12,YRRVGLTS,< -0.25
13,YRS,< -0.25
14,YRSNPAGADTITRTLHL,< -0.25
15,YRSPPMRAWGSFAPLRTRIP,< -0.253
16,YRTIAL,< -0.25
17,YRTPKPRDYRN,< -0.25
18,YRTTRSR,< -0.25
19,YRVNAGLPGTSNSVKNHVGT,< -0.25
20,YRVSYLCLGRSTSYCPWYCA,< -0.25
21,YRWKYHWRLMQCNDRRTGGS,< -0.25
22,YRWRVPVSARWAYESKSPED,< -0.25
23,YRWSSTYACRQYRISVQGRS,< -0.25
24,YSAGAPNGYERWPDADTLAE,< -0.25
25,YSDGFWFRRQGRATDSPTEF,< -0.25

row,Substance,growth estimate
1,YSERMGRHHIRKLPR,< -0.25
2,YSERTVPLLRILHAHIASLP,< -0.25
3,YSFGQDGC,< -0.25
4,YSFKGIFRAFYES,< -0.25
5,YSFLS,< -0.25
6,YSFRRTELALYCDDP,< -0.25
7,YSGHVMWT,< -0.25
8,YSGRVGGPRMPRRGRF,< -0.25
9,YSIGLIDTLRFLKPTRQAA,< -0.25
10,YSKRGEKVSVLRASSSWAAF,< -0.25
11,YSLDV,< -0.25
12,YSLGSVPGSFGR,< -0.25
13,YSLNSQSEGRFLLASSVLSN,< -0.25
14,YSLRRKRCISFPKMSVLRLV,< -0.25
15,YSLWMS,< -0.25
16,YSMFYSYERQNIRLHGRLRT,< -0.25
17,YSPAAE,< -0.25
18,YSPRVD,< -0.25
19,YSQVCARLEIYRTSENLLER,< -0.25
20,YSRLRVY,< -0.25
21,YSSCSISLYIQGKTLAVRRG,< -0.25
22,YSSGPGRPRRIGGYYGIRIK,< -0.25
23,YSVLSENCVSSLNANRLFSV,< -0.25
24,YSVVVISLSRDCAPPPGA,< -0.25
25,YSWVRKECSRKHLSMRSPD,< -0.25

row,Substance,growth estimate
1,YTARYISPSDSRPDAEERAV,< -0.25
2,YTDCSHWCWANYSSEEYVGP,2.39
3,YTDQFMGVNNGSESGDR,0.0721
4,YTEIYH,< -0.25
5,YTGFARYRTRAEQTVGRYAS,< -0.25
6,YTGSTIVFLFEVLLPGPLEY,< -0.25
7,YTIVKASIHRGV,< -0.25
8,YTNADFTWAIPGGLGS,< -0.25
9,YTPCPATQLAPGGNRSHEYE,< -0.25
10,YTPGVLGTRVIRGLGCGVVD,< -0.25
11,YTPKRMTSGC,< -0.25
12,YTSGGPFSERVSLPLSLSAV,< -0.25
13,YTSSEGPNLATNLGYALVND,< -0.25
14,YTSVHFGETGKPPAPSDTGV,< -0.25
15,YTTVEYIWLRIWILR,< -0.25
16,YTVFQTVSQNDIALAYPTYL,0.783
17,YTVGQASP,< -0.25
18,YTVRRDEVTAVTTSFLVRWI,< -0.25
19,YTVVGEQAARTGQPEPPRYP,< -0.25
20,YVAAPSLGSNRLVVGGPSGG,< -0.25
21,YVAHVNSPTLVTSSQEGLSL,< -0.25
22,YVASLNPVAGRTPSPQGWEM,< -0.25
23,YVCADIIGDRN,< -0.25
24,YVCVERTIRPRR,< -0.25
25,YVDKRAILSGNRVCRCLPGG,< -0.25

row,Substance,growth estimate
1,YVDQ,< -0.25
2,YVDQGTNRGSDTHDPHARQQ,< -0.25
3,YVEFRSSLPRYGKSLKSKVT,< -0.25
4,YVG,< -0.25
5,YVHQIRVRKSWGKNPKSVCS,< -0.25
6,YVNVVSHKNAGGLREIRRTG,< -0.25
7,YVPFHGCLC,< -0.25
8,YVQPLSTVPVMVHNSLRGSA,< -0.25
9,YVRPPFMWMPRAYTP,< -0.25
10,YVRSTLEQSYTT,< -0.25
11,YVSKIGCFTMR,< -0.25
12,YVSSSRICAASEYKSYLGAL,< -0.25
13,YVVHYHSGYLMWTNR,< -0.25
14,YVVLSGSRTSECPGGSPHMS,< -0.25
15,YWANWSEVSPIFWWEHPGGL,-0.109
16,YWGP,< -0.25
17,YWNMEAAVGQNIR,-0.0414
18,YWSDSL,< -0.25
19,YYAASPAVLVVLHLIFRAHG,< -0.25
20,YYIVVEARRRY,< -0.25
21,YYLTECQELDPTLWIPKCGP,0.788
22,YYNRSSLSTPYYTPAPRNVA,< -0.25
